Test results taken from the supplement of paper PMC10849652.
This is one part of the list.

Chains of the proteins cited; added tags and fusions are not shown. Lines headed by an entry give the natural chain unless they say otherwise; changes in a name come on top.
UniProt P53674: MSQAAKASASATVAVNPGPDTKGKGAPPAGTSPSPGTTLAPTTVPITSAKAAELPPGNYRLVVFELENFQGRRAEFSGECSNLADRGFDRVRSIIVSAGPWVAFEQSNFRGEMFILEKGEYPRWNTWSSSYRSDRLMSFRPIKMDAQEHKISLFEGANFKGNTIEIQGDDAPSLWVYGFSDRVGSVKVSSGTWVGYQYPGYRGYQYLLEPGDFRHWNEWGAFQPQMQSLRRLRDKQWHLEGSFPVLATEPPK
UniProt P02461, whole entry, looked up: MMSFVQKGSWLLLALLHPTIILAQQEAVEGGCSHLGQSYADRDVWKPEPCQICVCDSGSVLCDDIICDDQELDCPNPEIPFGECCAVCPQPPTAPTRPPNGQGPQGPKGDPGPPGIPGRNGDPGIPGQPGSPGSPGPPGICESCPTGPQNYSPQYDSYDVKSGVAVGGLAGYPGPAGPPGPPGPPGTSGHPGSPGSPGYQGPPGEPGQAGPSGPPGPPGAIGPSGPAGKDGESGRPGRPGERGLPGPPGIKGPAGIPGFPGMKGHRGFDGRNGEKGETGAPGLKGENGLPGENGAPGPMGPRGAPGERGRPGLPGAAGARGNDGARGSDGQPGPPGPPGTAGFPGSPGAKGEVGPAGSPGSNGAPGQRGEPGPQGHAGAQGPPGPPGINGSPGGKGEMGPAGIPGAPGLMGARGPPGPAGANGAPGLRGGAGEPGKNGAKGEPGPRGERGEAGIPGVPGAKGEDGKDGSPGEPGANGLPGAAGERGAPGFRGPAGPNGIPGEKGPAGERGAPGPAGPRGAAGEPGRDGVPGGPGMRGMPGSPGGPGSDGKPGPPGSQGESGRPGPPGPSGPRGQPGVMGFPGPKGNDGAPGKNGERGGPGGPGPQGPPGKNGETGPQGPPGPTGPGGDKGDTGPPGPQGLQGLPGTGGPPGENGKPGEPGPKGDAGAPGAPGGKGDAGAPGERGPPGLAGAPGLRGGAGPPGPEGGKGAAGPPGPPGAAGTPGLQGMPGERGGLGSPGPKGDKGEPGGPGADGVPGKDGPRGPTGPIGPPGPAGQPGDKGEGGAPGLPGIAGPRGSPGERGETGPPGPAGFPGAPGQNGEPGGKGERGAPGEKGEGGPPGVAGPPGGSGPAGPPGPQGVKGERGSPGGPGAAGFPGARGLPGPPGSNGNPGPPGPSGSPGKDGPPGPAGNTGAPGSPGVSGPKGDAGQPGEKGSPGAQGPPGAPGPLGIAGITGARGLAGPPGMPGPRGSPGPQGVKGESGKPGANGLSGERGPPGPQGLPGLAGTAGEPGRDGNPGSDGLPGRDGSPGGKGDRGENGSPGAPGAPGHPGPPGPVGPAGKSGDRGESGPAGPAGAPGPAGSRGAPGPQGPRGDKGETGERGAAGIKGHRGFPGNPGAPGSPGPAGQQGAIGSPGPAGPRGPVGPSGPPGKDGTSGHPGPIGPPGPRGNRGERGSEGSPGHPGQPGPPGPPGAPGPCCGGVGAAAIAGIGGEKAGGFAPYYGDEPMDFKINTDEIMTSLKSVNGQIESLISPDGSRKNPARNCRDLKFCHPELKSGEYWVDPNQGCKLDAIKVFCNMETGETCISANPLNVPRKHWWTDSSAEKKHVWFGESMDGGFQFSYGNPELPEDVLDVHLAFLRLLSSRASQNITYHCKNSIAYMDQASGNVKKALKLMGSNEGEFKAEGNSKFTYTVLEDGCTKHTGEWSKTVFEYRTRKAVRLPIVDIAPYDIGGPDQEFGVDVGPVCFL
UniProt P00450: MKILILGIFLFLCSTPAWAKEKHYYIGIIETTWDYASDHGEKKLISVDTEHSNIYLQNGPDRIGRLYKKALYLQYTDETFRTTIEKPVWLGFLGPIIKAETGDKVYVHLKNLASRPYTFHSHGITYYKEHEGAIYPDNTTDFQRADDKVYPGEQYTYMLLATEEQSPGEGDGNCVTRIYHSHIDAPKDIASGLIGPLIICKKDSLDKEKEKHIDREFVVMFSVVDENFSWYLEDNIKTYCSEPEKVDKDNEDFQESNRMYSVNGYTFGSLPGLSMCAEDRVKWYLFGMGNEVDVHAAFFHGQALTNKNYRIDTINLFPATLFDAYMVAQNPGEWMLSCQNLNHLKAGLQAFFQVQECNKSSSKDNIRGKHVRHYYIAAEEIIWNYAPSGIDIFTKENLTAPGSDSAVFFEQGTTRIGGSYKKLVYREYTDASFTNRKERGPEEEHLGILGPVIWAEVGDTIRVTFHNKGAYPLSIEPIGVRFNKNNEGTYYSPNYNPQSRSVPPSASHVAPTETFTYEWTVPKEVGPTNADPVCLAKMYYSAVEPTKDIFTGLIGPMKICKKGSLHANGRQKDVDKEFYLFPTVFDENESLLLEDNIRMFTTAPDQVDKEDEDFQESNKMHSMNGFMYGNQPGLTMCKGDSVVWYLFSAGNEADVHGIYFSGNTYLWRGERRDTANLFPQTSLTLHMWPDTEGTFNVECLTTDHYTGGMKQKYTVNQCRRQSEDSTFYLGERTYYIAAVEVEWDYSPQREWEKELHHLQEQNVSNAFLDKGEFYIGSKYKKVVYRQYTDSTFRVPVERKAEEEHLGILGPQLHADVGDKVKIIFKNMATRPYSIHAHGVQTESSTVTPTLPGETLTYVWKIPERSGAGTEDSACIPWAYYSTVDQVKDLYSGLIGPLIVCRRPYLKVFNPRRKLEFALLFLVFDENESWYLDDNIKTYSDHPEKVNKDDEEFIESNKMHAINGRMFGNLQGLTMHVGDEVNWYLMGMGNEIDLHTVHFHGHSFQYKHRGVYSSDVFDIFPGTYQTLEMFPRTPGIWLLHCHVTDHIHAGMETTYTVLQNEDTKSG
UniProt Q96H96: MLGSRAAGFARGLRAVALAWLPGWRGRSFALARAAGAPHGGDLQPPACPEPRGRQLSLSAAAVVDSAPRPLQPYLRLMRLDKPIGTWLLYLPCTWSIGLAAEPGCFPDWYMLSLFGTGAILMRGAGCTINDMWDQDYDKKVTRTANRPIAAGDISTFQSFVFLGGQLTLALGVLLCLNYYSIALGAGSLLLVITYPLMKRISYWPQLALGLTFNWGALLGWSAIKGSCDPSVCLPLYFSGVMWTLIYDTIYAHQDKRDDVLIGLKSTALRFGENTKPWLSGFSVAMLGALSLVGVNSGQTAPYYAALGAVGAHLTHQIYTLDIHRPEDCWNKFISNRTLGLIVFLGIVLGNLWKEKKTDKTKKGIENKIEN
UniProt Q14894: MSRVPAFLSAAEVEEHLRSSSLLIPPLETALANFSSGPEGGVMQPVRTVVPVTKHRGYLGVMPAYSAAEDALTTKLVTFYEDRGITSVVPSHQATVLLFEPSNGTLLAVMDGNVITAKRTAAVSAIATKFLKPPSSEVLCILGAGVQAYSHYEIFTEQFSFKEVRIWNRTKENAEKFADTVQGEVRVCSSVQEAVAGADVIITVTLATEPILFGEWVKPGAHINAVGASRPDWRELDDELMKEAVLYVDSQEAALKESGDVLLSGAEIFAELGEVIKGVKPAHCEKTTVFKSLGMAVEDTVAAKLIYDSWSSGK
UniProt Q6QEF8, whole entry, looked up: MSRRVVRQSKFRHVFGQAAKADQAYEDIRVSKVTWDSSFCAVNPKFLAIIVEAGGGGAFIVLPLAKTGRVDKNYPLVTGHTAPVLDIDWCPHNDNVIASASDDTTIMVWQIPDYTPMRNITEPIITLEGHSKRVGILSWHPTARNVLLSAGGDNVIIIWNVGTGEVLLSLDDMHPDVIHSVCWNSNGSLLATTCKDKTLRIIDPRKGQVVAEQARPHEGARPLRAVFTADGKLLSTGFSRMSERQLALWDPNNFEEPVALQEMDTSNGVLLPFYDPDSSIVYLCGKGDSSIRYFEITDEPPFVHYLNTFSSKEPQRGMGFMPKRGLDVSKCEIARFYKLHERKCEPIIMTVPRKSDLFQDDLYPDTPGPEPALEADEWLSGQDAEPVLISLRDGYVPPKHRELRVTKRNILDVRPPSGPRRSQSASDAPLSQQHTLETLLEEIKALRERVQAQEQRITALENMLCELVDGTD
UniProt Q9UBI1, whole entry, looked up: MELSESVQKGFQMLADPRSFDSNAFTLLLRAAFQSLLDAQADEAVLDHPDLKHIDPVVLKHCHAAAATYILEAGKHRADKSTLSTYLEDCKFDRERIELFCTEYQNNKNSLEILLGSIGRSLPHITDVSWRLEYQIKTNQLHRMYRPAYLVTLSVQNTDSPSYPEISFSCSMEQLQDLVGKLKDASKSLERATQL
UniProt P15169: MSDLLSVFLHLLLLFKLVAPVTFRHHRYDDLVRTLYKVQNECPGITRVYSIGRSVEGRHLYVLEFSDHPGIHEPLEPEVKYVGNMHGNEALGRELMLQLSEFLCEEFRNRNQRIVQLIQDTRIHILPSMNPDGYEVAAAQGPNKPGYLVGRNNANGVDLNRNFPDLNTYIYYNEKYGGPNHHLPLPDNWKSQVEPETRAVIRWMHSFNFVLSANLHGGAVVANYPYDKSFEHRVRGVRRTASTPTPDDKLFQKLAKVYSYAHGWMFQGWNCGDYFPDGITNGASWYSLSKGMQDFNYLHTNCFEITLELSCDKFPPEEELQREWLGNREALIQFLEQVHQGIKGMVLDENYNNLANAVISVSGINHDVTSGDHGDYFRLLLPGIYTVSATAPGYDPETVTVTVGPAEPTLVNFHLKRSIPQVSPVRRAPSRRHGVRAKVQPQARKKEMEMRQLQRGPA
UniProt P29762, whole entry, looked up: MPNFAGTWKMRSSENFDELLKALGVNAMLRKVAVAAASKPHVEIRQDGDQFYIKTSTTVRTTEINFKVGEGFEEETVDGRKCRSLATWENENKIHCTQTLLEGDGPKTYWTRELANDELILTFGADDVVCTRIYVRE
UniProt P78368: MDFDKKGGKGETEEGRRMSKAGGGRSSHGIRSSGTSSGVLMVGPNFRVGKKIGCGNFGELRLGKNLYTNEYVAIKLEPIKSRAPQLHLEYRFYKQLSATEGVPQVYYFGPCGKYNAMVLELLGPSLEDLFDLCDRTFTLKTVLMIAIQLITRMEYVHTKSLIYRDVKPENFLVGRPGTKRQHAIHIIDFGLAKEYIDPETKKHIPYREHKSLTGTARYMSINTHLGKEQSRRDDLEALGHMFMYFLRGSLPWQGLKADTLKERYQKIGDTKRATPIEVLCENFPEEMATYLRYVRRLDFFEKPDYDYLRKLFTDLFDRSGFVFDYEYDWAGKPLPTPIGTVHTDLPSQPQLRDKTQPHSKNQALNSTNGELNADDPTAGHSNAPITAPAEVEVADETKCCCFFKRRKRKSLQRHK
UniProt Q49AN0: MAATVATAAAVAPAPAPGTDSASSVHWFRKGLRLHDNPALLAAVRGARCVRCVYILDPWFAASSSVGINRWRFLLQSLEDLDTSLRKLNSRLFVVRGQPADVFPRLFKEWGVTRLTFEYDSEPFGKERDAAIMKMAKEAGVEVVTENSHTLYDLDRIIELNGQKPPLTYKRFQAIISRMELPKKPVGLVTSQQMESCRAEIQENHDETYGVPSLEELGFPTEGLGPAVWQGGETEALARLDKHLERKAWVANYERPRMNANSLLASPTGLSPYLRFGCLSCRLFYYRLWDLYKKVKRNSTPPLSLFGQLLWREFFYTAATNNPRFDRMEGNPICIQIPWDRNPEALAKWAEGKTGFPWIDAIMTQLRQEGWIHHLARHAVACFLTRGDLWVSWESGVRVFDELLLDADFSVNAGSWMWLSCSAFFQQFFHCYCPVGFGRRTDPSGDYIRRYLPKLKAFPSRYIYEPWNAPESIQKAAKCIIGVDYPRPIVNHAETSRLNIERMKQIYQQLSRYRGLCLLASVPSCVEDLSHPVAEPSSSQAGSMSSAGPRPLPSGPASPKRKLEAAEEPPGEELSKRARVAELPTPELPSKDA
UniProt P02511: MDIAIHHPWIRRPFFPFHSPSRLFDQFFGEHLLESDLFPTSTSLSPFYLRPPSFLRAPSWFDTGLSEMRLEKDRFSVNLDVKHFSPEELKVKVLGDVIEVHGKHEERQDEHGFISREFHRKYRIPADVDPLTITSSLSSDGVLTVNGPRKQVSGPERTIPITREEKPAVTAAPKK
UniProt Q9UBL6: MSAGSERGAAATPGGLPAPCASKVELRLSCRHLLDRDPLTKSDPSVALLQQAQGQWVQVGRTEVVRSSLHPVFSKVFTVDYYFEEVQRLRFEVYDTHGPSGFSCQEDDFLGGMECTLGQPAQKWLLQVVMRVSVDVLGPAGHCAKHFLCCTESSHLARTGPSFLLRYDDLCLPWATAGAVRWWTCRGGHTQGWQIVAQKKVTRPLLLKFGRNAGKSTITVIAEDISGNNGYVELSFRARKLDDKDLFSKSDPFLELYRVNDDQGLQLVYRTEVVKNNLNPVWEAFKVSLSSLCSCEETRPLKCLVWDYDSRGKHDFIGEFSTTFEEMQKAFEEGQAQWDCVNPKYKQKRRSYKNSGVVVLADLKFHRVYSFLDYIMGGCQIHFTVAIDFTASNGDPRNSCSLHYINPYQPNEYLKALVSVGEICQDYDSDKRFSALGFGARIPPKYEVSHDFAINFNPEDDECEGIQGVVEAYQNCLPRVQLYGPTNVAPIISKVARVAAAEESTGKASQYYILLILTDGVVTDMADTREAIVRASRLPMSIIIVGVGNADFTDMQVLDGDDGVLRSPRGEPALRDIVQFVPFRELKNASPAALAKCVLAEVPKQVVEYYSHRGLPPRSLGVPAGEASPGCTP

Experiments:
Assay in all cases: log2 fold change, soluble protein after heating vs DMSO (PISA); higher = thermal stabilisation; K562 cells, 10 uM, 30 min; active = over 0.2 and 3.5 SD of the protein, either way, in both replicates (recomputed)
[1] = compound: CC1=NC(=CC=C1)C2=C(N=C(N2)C(C)(C)C)C3=CC4=NC=CN=C4C=C3
In short: (§1)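 K562 cells at 2×10^6 cells/mL were treated with 10 μM compound for 30 min. Aliquots were heated for 3 min across 48°C-58°C, pooled, and extracted in PBS with 0.5% NP-40 at 4°C; soluble protein was the supernatant after 21,000xg for 90 min. Soluble protein was quantified by TMTpro 16plex LC-MS/MS with channel sums equalised, and reported as log2 fold change in thermal stability against DMSO controls, with values from duplicates.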

[2] = compound: CCCCN(Cc1ccc(C(=O)NO)cc1)C(=O)Nc1ccccc1 [Nexturastat A]
In short: as §1

[3] = compound: CCN(CC)Cc1ccc2cc(COC(=O)Nc3ccc(C(=O)NO)cc3)ccc2c1 [givinostat]
In short: as §1

[4] = compound: CC1=C(C=C(C=C1)NC(=O)C2=CC(=CC=C2)N(C)C)NC(=O)C3=CC=C(C=C3)O
In short: as §1

[5] = compound: CCCS(=O)(=O)Nc1ccc(F)c(C(=O)c2c[nH]c3ncc(-c4ccc(Cl)cc4)cc23)c1F [vemurafenib]
In short: as §1

[6] = compound: CCCc1cc(C)[nH]c(=O)c1CNC(=O)c1cc(-c2ccnc(N3CCN(C)CC3)c2)cc2c1cnn2C(C)C
In short: as §1

[7] = compound: CCN(CCCOc1ccc2c(Nc3cc(CC(=O)Nc4cccc(F)c4)[nH]n3)ncnc2c1)CCOP(=O)(O)O [barasertib]
In short: as §1

[8] = compound: CC1=CC=C(C=C1)SC2=C3C=C(SC3=CN=C2)C(=O)N
In short: as §1

[9] = compound: CCCS(=O)(=O)Nc1ccc(F)c(C(=O)c2c[nH]c3ncc(Cl)cc23)c1F
In short: as §1

[10] = compound: CC1=C(C=C(C=C1)NC(=O)C2=CC(=CC=C2)C(C)(C)C#N)NC3=CC4=C(C=C3)N=CN(C4=O)C
In short: as §1

Measured: log2 fold change

CRYBB1 (UniProt P53674)
inactive: [1] 0.079 | [2] -0.142 | [3] 0.068

CREB3L2 (UniProt Q70SY1)
active: [2] 0.706
inactive: [4] 0.085 | [1] -0.23 | [5] -0.036 | [6] 0.154 | [3] 0.436 | [7] 0.081

CSNK1A1 isoform 3 (UniProt P48729)
inactive: [8] -0.08 | [9] 0.227 | [6] -0.035 | [7] -0.089

COL3A1 (UniProt P02461)
inactive: [4] 0.461 | [8] 0.018 | [1] 0.038 | [2] -0.143 | [5] 0.051 | [9] -0.009 | [3] -0.059

CP (UniProt P00450)
inactive: [4] 0.44 | [8] 0.029 | [9] -0.044 | [7] -0.117

COQ2 (UniProt Q96H96)
inactive: [2] -0.346 | [3] 0.047

CRAT (UniProt P43155)
inactive: [8] 0.03 | [9] 0.289

CRYM (UniProt Q14894)
inactive: [2] -0.085 | [3] 0.076

CRMP1 isoform 2 (UniProt Q14194)
inactive: [10] 0.089 | [5] -0.026 | [3] -0.19 | [7] 0.035

COP1 (UniProt Q8NHY2)
inactive: [4] -0.056 | [8] 0.231 | [9] -0.021

Quoted from the entries so far (two entries):
CRAT (UniProt P43155)
inactive: [8] 0.03 | [9] 0.289

CRYM (UniProt Q14894)
inactive: [2] -0.085 | [3] 0.076

Further results

CROCCP2 (UniProt Q86T23)
inactive: [4] -0.022 | [3] -0.213 | [7] 0.016

CORO6 isoform 5 (UniProt Q6QEF8)
inactive: [10] -0.058 | [1] -0.283 | [2] -0.077 | [5] -0.018

COQ4 (UniProt Q9Y3A0)
inactive: [4] 0.17

CPNE5 (UniProt Q9HCH3)
inactive: [3] -0.005

COLEC11 isoform 10 (UniProt Q9BWP8)
inactive: [1] -0.251 | [2] 0.097 | [5] 0.019 | [6] -0.056 | [7] -0.04

COMMD3 (UniProt Q9UBI1)
inactive: [4] -0.163 | [8] 0.159 | [1] -0.009 | [5] 0.14 | [9] 0.067 | [6] 0.048 | [7] 0.089

COL2A1 (UniProt P02458)
inactive: [5] 0.263

CPA4 (UniProt Q9UI42)
inactive: [5] 0.408

CPN1 (UniProt P15169)
inactive: [4] 0.215 | [5] -0.026 | [3] -0.034 | [7] 0.002

COMMD3-BMI1 (UniProt R4GMX3)
inactive: [10] -0.002 | [8] -0.126 | [2] 0.03
active: [9] -0.426

CRABP1 (UniProt P29762)
inactive: [5] -0.171

CRNN (UniProt Q9UBG3)
inactive: [6] 0.858 | [3] 0.496 | [7] 0.467

CSNK1G2 (UniProt P78368)
inactive: [10] 0.086 | [1] 0 | [2] 0.182 | [6] -0.537

CRABP2 (UniProt P29373)
inactive: [2] 0.033 | [6] 0.03

CRY2 (UniProt Q49AN0)
inactive: [5] 0.013 | [7] 0.019

COMMD6 isoform 2 (UniProt Q7Z4G1)
inactive: [2] 0.035 | [5] -0.008 | [3] 0.176

CRYAB (UniProt P02511)
inactive: [10] -0.133 | [1] -0.273 | [2] 0.426 | [5] 0.023

CPNE7 (UniProt Q9UBL6)
inactive: [4] 0.013 | [8] 0.045 | [1] -0.035 | [5] 0.08 | [9] -0.037 | [6] -0.006 | [3] 0.028 | [7] 0.031

CRY1 (UniProt Q16526)
inactive: [4] 0.033 | [8] 0.104 | [2] 0.12 | [5] -0.03 | [9] -0.212

CPLX1 (UniProt O14810)
inactive: [4] 0.049 | [1] 0.004 | [2] -0.105 | [5] -0.14 | [6] -0.142 | [3] -0.237 | [7] 0.058

CPSF4 (UniProt O95639)
inactive: [4] -0.101 | [6] -0.119 | [7] -0.083

CSGALNACT2 (UniProt Q8N6G5)
inactive: [1] 0.171 | [2] 0.152 | [7] -0.098

COL25A1 (UniProt Q9BXS0)
inactive: [2] -0.082 | [3] 0.142 | [7] -0.228

CRADD (UniProt P78560)
inactive: [1] 0.004 | [5] 0.113 | [3] 0.064

CS (UniProt F8VU34)
inactive: [7] -0.024

COL6A3 (UniProt P12111)
inactive: [8] 0.203 | [2] 0.168 | [9] -0.166 | [3] 0.249
